# According to the supplement of paper PMC12819154, “High-throughput peptide-centric local stability assay extends protein–ligand identification to membrane proteins, tissues and bacteria” (Nature Structural & Molecular Biology, 2025):
# By UniProt entry, the sequences of proteins in these tests, tags left out. Where a name states a change or a piece, a line headed by the entry shows the natural chain unless it says otherwise.
# UniProt Q9NX18: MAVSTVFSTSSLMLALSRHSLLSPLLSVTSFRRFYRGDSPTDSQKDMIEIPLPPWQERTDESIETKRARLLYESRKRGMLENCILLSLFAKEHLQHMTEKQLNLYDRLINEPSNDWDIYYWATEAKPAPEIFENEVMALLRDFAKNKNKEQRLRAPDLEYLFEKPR
# UniProt Q9NVP1: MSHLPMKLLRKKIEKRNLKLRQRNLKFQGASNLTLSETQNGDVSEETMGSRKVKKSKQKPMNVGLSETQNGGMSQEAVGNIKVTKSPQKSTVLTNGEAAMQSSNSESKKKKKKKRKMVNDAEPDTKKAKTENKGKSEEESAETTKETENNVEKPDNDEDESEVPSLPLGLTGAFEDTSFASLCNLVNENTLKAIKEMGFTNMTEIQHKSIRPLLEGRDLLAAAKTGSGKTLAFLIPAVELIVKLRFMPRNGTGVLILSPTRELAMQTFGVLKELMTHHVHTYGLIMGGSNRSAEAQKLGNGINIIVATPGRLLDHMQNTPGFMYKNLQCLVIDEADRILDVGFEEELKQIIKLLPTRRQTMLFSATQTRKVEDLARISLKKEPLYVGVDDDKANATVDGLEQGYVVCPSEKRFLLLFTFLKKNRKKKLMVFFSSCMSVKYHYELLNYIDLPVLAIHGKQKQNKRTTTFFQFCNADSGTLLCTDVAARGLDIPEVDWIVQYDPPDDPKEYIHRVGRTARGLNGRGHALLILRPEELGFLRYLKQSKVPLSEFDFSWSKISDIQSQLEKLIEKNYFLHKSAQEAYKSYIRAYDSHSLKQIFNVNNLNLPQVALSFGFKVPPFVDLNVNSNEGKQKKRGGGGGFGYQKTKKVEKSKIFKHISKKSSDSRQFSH
# UniProt Q9NRR5, whole entry: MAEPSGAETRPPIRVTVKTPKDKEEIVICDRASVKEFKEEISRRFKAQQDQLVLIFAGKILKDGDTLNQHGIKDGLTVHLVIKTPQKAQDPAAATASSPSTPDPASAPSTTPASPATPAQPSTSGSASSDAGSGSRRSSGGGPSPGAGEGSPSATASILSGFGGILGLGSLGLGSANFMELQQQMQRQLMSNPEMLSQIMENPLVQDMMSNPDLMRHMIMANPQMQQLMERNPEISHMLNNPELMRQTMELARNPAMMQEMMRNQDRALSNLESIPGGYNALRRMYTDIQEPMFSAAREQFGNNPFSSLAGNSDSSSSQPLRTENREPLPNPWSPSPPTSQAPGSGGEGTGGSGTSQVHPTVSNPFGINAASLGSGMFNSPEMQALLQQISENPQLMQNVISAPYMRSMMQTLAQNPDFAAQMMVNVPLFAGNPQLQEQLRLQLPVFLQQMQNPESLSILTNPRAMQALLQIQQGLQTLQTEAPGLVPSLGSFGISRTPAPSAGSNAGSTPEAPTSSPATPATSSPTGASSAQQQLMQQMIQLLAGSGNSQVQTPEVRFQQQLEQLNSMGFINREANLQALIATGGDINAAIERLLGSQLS
# UniProt Q9NRL3: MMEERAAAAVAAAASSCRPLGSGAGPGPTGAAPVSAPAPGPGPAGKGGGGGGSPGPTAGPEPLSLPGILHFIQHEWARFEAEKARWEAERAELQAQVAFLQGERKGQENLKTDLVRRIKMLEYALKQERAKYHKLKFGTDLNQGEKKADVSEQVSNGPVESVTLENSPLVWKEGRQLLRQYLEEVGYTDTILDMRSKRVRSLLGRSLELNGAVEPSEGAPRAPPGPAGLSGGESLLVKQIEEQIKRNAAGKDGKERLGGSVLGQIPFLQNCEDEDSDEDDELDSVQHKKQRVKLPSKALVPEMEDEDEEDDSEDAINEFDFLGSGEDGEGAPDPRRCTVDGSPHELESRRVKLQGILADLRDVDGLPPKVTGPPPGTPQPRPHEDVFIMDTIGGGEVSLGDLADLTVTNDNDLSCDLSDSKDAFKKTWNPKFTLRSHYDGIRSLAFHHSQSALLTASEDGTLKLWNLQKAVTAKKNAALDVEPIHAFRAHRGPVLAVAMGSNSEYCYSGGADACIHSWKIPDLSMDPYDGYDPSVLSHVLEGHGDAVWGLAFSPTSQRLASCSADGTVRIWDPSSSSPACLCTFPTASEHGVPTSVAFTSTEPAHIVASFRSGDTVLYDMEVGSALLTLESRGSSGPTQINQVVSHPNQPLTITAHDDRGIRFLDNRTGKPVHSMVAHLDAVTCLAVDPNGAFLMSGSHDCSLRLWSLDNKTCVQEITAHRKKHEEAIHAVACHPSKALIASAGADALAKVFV
# UniProt Q9NX02: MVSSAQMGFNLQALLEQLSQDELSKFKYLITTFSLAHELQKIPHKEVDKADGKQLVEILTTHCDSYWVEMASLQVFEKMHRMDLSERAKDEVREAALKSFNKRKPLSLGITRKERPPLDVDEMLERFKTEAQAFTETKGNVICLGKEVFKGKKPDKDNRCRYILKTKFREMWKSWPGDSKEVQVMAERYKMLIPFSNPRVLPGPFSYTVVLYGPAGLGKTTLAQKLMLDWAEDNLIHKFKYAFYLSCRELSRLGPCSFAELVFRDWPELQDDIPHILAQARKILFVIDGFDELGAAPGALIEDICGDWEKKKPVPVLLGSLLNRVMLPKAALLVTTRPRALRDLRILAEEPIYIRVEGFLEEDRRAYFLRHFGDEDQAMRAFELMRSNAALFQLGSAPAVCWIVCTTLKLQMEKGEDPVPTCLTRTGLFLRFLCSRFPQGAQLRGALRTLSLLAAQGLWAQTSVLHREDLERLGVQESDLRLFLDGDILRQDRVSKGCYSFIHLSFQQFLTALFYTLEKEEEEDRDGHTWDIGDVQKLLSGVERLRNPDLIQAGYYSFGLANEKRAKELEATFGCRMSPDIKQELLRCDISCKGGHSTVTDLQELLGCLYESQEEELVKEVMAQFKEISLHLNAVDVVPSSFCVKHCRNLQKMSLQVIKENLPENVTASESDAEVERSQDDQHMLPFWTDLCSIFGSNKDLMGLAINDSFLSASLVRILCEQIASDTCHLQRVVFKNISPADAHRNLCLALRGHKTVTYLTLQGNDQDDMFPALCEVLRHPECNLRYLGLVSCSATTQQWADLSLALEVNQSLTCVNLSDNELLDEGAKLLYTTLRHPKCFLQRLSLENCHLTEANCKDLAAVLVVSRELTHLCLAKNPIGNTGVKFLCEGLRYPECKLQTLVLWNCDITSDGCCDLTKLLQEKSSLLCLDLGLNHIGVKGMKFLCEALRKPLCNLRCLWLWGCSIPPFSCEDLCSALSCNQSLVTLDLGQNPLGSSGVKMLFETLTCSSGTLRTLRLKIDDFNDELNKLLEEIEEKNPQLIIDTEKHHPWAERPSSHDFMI
# UniProt Q9NUW8, whole entry: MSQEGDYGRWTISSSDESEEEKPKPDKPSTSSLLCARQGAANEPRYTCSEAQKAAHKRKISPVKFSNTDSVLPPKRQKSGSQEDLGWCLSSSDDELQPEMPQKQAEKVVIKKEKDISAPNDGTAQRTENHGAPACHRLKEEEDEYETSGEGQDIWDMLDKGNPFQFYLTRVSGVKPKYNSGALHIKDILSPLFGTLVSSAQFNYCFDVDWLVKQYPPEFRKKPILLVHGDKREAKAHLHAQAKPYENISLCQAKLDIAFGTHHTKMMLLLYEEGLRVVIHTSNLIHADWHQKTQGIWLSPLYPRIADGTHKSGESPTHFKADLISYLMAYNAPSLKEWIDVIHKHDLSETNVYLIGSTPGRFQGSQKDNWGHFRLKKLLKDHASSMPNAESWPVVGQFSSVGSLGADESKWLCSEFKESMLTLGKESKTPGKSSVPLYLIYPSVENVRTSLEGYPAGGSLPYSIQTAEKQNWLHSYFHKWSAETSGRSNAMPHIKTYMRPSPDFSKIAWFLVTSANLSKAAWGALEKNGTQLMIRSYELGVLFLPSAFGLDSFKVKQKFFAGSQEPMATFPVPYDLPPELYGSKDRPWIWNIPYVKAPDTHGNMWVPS
# UniProt Q9NY33: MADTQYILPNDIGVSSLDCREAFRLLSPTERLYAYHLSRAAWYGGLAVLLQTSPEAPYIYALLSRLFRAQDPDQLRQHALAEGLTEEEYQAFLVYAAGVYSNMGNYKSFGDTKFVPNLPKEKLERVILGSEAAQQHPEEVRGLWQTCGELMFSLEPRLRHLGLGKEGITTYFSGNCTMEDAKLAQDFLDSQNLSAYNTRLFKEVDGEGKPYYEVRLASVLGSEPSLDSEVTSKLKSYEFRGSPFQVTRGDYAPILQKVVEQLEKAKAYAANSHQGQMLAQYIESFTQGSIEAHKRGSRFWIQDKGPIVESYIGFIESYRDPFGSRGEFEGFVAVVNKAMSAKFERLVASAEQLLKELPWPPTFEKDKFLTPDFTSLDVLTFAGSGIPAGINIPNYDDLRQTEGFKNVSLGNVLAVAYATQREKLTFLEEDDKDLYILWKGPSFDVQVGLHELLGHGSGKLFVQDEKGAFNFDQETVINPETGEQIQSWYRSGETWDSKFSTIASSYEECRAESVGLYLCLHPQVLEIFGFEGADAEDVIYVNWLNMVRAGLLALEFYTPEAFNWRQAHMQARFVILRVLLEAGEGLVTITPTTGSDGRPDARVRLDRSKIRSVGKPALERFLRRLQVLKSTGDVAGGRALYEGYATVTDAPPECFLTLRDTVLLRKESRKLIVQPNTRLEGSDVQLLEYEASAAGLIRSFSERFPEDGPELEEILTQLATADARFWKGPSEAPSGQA
# UniProt Q9NXD2: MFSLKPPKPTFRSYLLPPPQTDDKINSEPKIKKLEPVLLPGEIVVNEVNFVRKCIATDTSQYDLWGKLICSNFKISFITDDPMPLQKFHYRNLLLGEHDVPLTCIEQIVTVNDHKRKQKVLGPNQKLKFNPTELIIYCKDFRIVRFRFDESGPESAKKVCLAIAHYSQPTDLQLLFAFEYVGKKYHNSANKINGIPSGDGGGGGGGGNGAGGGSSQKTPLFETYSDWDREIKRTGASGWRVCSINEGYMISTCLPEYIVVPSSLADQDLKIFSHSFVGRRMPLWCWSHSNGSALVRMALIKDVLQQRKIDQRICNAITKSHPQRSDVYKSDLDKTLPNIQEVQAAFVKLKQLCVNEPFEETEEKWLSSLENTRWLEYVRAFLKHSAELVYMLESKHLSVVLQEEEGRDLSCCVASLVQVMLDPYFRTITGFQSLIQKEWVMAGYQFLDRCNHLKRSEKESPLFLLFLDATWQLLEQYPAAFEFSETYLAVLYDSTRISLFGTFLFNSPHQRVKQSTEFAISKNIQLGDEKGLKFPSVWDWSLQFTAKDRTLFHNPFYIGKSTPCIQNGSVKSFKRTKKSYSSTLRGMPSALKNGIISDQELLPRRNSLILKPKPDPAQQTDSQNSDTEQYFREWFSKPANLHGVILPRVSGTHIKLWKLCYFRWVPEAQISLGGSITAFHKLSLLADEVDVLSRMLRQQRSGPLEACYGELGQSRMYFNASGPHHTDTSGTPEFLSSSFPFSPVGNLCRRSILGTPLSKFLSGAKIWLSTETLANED
# UniProt Q9NVT9: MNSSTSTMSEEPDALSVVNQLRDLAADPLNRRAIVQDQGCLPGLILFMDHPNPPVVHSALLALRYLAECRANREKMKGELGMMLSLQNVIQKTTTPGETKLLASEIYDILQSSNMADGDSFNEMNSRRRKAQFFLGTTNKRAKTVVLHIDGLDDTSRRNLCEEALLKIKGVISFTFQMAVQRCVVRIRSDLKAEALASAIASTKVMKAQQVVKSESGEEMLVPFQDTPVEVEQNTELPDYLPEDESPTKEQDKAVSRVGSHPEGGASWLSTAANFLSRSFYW
# UniProt Q9NSK7: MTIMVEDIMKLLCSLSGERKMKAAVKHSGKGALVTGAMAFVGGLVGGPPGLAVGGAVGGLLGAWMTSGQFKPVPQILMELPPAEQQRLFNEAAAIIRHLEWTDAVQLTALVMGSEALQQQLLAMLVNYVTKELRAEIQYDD
# UniProt Q9NRG0: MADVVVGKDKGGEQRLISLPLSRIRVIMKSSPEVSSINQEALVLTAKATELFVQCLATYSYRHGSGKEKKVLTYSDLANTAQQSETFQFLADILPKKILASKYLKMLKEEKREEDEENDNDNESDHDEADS
# UniProt Q9NVH0: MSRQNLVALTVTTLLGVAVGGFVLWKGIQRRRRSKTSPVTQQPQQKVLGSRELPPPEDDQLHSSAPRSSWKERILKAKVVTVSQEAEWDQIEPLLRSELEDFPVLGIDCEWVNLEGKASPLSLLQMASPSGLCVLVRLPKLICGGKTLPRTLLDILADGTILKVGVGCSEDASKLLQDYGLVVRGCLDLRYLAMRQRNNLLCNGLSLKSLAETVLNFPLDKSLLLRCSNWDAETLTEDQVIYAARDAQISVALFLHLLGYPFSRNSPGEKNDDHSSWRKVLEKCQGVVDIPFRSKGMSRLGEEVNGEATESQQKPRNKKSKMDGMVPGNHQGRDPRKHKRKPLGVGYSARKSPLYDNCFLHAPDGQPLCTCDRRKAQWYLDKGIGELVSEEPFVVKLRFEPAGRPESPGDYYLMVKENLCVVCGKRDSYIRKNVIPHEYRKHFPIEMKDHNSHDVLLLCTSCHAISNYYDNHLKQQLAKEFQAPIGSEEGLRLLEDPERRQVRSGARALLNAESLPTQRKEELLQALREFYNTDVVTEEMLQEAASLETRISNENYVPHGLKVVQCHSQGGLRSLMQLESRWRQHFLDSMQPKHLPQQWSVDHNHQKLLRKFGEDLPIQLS
# The list shows a part of the results. Most entries show no effect beyond the scatter of the controls.
# Compound: CN[C@@H]1C[C@H]2O[C@@](C)([C@@H]1OC)n1c3ccccc3c3c4c(c5c6ccccc6n2c5c31)C(=O)NC4 [staurosporine]
# Experiment: log2 fold change of tryptic peptide abundance, ligand vs vehicle (limited proteolysis) (log2 ratio); higher = more trypsin-susceptible (destabilized)
# Conditions: ligand concentration: 20 uM; sample: K562 cleared lysate; digestion: 4 min, 22 C (HT-PELSA RT4min, Orbitrap Astral)
row,Target,log2 fold change
1,"DONSON (peptide sequence: ALSVPGYSPGFR, peptide start residue: 2) (UniProt Q9NYP3)",0.128
2,"ING3 (peptide sequence: YNPTSHHTTTDHIPEKK, peptide start residue: 149) (UniProt Q9NXR8)",-0.405
3,"ABCB8 (peptide sequence: TVLVIAHR, peptide start residue: 684) (UniProt Q9NUT2)",-0.0387
4,"RASSF1 (peptide sequence: KPPSLQDAR, peptide start residue: 185) (UniProt Q9NS23)",0.354
5,"SDHAF2 (peptide sequence: TDESIETKR, peptide start residue: 59) (UniProt Q9NX18)",-0.65
6,"DDX18 (peptide sequence: QKPMNVGLSETQNGGMSQEAVGNIK, peptide start residue: 58) (UniProt Q9NVP1)",-1.04
7,"SMPD4 (peptide sequence: RFEIEYQGDPELQPIR, peptide start residue: 721) (UniProt Q9NXE4)",-0.248
8,"UBQLN4 (peptide sequence: QTMELAR, peptide start residue: 247) (UniProt Q9NRR5)",-0.375
9,"STRN4 (peptide sequence: KNAALDVEPIHAFR, peptide start residue: 475) (UniProt Q9NRL3)",-0.302
10,"UniProt Q9NXB0 (peptide sequence: AFMESSSLQK, peptide start residue: 498)",-0.137
11,"UniProt Q9NSI2 (peptide sequence: VHQAAVRPK, peptide start residue: 11)",0.0945
12,"LATS2 (peptide sequence: FFMEQHVENVIK, peptide start residue: 604) (UniProt Q9NRM7)",-0.558
13,"NLRP2 (peptide sequence: KPLSLGITRK, peptide start residue: 104) (UniProt Q9NX02)",-1.12
14,"GPHN (peptide sequence: IPDSIISR, peptide start residue: 244) (UniProt Q9NQX3)",-0.13
15,"MRPL16 (peptide sequence: IATANMLGIR, peptide start residue: 218) (UniProt Q9NX20)",0.149
16,"USE1 (peptide sequence: LAEEMLGLAR, peptide start residue: 172) (UniProt Q9NZ43)",-0.254
17,"TDP1 (peptide sequence: FSNTDSVLPPKR, peptide start residue: 65) (UniProt Q9NUW8)",-0.292
18,"ABI2 (peptide sequence: KPIDYTILDDIGHGVK, peptide start residue: 139) (UniProt Q9NYB9)",0.469
19,"UniProt Q9NYJ8 (peptide sequence: NMSGQVSMGPAFIHHHPPK, peptide start residue: 421)",0.202

row,Target,log2 fold change
1,"UniProt Q9NRY4 (peptide sequence: FIRPSDR, peptide start residue: 578)",0.309
2,"TYW1 (peptide sequence: QGYQLIGSHSGVK, peptide start residue: 367) (UniProt Q9NV66)",0.337
3,"CISH (peptide sequence: DSTHPSYLFTLSVK, peptide start residue: 108) (UniProt Q9NSE2)",-0.127
4,"UniProt Q9NRW1 (peptide sequence: GSDVIIMLVGNKTDLADKR, peptide start residue: 116)",0.211
5,"DIABLO (peptide sequence: AESEQEAYLRED, peptide start residue: 228) (UniProt Q9NR28)",-0.434
6,"DPP3 (peptide sequence: SGETWDSK, peptide start residue: 491) (UniProt Q9NY33)",-0.241
7,"PDLIM7 (peptide sequence: ASAPAADPPR, peptide start residue: 94) (UniProt Q9NR12)",-0.144
8,"FAIM (peptide sequence: DAMDVWCNGK, peptide start residue: 116) (UniProt Q9NVQ4)",0.297
9,"BAZ1A (peptide sequence: HSHGPLQADVFVELLSPR, peptide start residue: 1338) (UniProt Q9NRL2)",-0.318
10,"MTMR10 (peptide sequence: MFSLKPPKPTFR, peptide start residue: 1) (UniProt Q9NXD2)",-0.14
11,"ARMC1 (peptide sequence: GELGMMLSLQNVIQK, peptide start residue: 78) (UniProt Q9NVT9)",-0.362
12,"C19orf12 (peptide sequence: LLCSLSGER, peptide start residue: 22) (UniProt Q9NSK7)",0.0697
13,"PPP4R2 (peptide sequence: FDKEGEVR, peptide start residue: 250) (UniProt Q9NY27)",0.175
14,"CHRAC1 (peptide sequence: LISLPLSR, peptide start residue: 16) (UniProt Q9NRG0)",0.126
15,"POLR3E (peptide sequence: LANGLPLGR, peptide start residue: 530) (UniProt Q9NVU0)",-0.121
16,"TBC1D23 (peptide sequence: MSFNLPWPDRSCTER, peptide start residue: 519) (UniProt Q9NUY8)",-0.428
17,"UniProt Q9NVH0 (peptide sequence: LGEEVNGEATESQQKPR, peptide start residue: 300)",-0.646
18,"ERAP1 (peptide sequence: GMDGFCSR, peptide start residue: 493) (UniProt Q9NZ08)",0.0424

# Some values from the results shown.
# CISH (peptide sequence: DSTHPSYLFTLSVK, peptide start residue: 108) (UniProt Q9NSE2) | log2 fold change: -0.127
# DIABLO (peptide sequence: AESEQEAYLRED, peptide start residue: 228) (UniProt Q9NR28) | log2 fold change: -0.434
